Test results taken from the supplement of paper PMC3334620.
The full ranking holds about 33,000 sequences; the median of “E-score (-0.5 to 0.5)” is about -0.0034, and the highest 2% start at about 0.25. The list shows a part of the results.

target: T1, Yap3 (UniProt P38749); experiment: PBM E-score (8-mer binding enrichment) (E-score (-0.5 to 0.5)); higher = stronger / more preferred TF binding; conditions: protein concentration: 100 nM; construct: GST-full length
T1 sequence: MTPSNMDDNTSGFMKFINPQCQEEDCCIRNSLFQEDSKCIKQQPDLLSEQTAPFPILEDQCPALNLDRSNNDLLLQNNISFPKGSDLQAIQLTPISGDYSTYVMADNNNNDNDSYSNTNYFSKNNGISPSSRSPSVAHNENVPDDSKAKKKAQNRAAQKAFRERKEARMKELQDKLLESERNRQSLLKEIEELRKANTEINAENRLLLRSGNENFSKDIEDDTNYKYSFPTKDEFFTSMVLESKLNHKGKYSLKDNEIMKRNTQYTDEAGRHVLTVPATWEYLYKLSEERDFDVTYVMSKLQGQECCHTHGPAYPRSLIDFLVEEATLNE
How it was run: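 Using PURExpress in vitro transcription/translation, GST-tagged yeast transcription factors were made in full-length or DNA-binding-domain form. These were applied at about 100-200 nM to double-stranded universal all-10-mer Agilent arrays, and bound protein was detected with fluorescent anti-GST. Scans were normalised with masliner before the Universal PBM Analysis Suite assigned E-scores to ungapped eight-base words pooled with their reverse complements.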

Going from AACCGGGG to AACACCGG, the “PBM E-score” value rises from -0.287 to 0.00908.

Compared with CGAGGCGC, AGGGGTAA is lower in “PBM E-score” value: -0.0513 for the first, -0.0593 for the second.

Compared with CGACGCGC, TATCATAA is higher in “PBM E-score” value: 0.039 for the first, 0.196 for the second.

First: CGAACCGC
Second: ATCGAGAG
The “PBM E-score” value of the first is higher: 0.0385 for the first, -0.0157 for the second.

Compared with AGTGAGCA, AATGACGC is higher in “PBM E-score” value: -0.0394 for the first, -0.00212 for the second.

First: GACGCGCA
Second: TACGATGA
The “PBM E-score” value of the first is higher: 0.0727 for the first, 0.0047 for the second.

Going from ACCCTACC to CTTGTGCA, the “PBM E-score” value rises from -0.0075 to 0.0949.

First: AGAGCGTA
Second: CTCTGGGC
The “PBM E-score” value of the first is higher: -0.0491 for the first, -0.0869 for the second.

Compared with GCCTTAAC, CCTGTAGC is lower in “PBM E-score” value: -0.0294 for the first, -0.261 for the second.

Going from AAGCTGCC to AATCCTCA, the “PBM E-score” value rises from -0.0817 to -0.0611.

Going from CAAAACTA to GACGCACC, the “PBM E-score” value falls from 0.223 to -0.0373.

Going from CGCTATCA to CAACCGTA, the “PBM E-score” value falls from 0.102 to -0.204.

Compared with AAATAGCG, GGATCGAA is lower in “PBM E-score” value: 0.175 for the first, -0.113 for the second.

First: CCGTTTTC
Second: CCCCTGTC
The “PBM E-score” value of the first is higher: 0.117 for the first, -0.308 for the second.

Compared with ATAATATG, AGGCCTAA is lower in “PBM E-score” value: 0.307 for the first, 0.0865 for the second.

Going from ACACCTTG to AACTCCCA, the “PBM E-score” value rises from -0.0357 to 0.0399.

Going from CACGAAAA to GATCCCTA, the “PBM E-score” value falls from 0.176 to -0.144.

First: GTCGGTGA
Second: ACCTTGTA
The “PBM E-score” value of the first is lower: -0.149 for the first, 0.0214 for the second.

Compared with GCTACCGA, CGCCTGCC is lower in “PBM E-score” value: -0.00336 for the first, -0.27 for the second.

Going from AAGTCCGC to CTCCGCTA, the “PBM E-score” value falls from -0.104 to -0.187.

Going from AGGTCCGG to ACAGAACG, the “PBM E-score” value rises from -0.182 to 0.0442.

Going from CCGAGAAC to ACGCTGCA, the “PBM E-score” value falls from 0.0294 to -0.131.

First: ATATCGTC
Second: GCAAATCA
The “PBM E-score” value of the first is lower: 0.00282 for the first, 0.134 for the second.

First: AACGCTAC
Second: AACCTCTT
The “PBM E-score” value of the first is higher: 0.0181 for the first, 0.00568 for the second.

Going from AGGATCCA to CCTCACCC, the “PBM E-score” value falls from 0.0753 to -0.144.

Compared with GCTCTCAC, AAGCTCAT is higher in “PBM E-score” value: -0.191 for the first, -0.1 for the second.

Compared with AATTGCGA, AACGTCCT is higher in “PBM E-score” value: 0.0115 for the first, 0.0567 for the second.

First: CGGTAGAC
Second: AGACAAGA
The “PBM E-score” value of the first is lower: 0.0616 for the first, 0.149 for the second.

Compared with TAACACAA, ACAGGTCC is lower in “PBM E-score” value: 0.174 for the first, -0.273 for the second.

Compared with AGCTTGGA, AATATCAA is higher in “PBM E-score” value: -0.138 for the first, 0.244 for the second.

Compared with ATAAGGTA, TCCTTCGA is lower in “PBM E-score” value: 0.21 for the first, -0.0934 for the second.

First: GAAGATTC
Second: AAGAGTTC
The “PBM E-score” value of the first is higher: -0.0627 for the first, -0.102 for the second.

Going from GATCGAAA to GAAAGTTC, the “PBM E-score” value falls from 0.124 to -0.149.

First: AGTAGGTA
Second: ACAACGCT
The “PBM E-score” value of the first is lower: 0.0502 for the first, 0.0729 for the second.

First: CTTTCGCC
Second: GAACACTC
The “PBM E-score” value of the first is lower: -0.0432 for the first, -0.0352 for the second.

Compared with GTACTCTA, CCGCCTAA is lower in “PBM E-score” value: -0.0589 for the first, -0.155 for the second.

Compared with GCTGCCGA, GATTTCCC is higher in “PBM E-score” value: -0.256 for the first, 0.124 for the second.

Compared with CGGCTAAC, AGCGGACT is lower in “PBM E-score” value: 0.0657 for the first, -0.266 for the second.

Compared with ATTAGGAA, AACGTTAA is higher in “PBM E-score” value: 0.0996 for the first, 0.159 for the second.

Compared with ATACTAGC, GATGACTA is higher in “PBM E-score” value: 0.0285 for the first, 0.113 for the second.

Compared with CAATGTAC, GGATCAAC is higher in “PBM E-score” value: -0.154 for the first, 0.065 for the second.

Going from CCCGGGGA to CTGTAATA, the “PBM E-score” value rises from -0.335 to 0.113.

Compared with ATAAAAAT, ATTGGTTG is lower in “PBM E-score” value: 0.199 for the first, 0.118 for the second.

Compared with CTCGAGCC, AAGAACGC is higher in “PBM E-score” value: -0.0222 for the first, 0.0756 for the second.

Compared with ATCCGGAC, AGATCTTC is higher in “PBM E-score” value: -0.146 for the first, 0.0262 for the second.

First: GATAGAAC
Second: ATTGCTGA
The “PBM E-score” value of the first is higher: 0.109 for the first, 0.093 for the second.

Going from CCGGCCAG to GAATGTAC, the “PBM E-score” value rises from -0.181 to 0.0877.

Going from CCCCATTA to ATTTACAC, the “PBM E-score” value rises from -0.0898 to -0.0267.

Compared with CTAGGAAG, TCCTGTCA is higher in “PBM E-score” value: -0.0762 for the first, -0.0145 for the second.

First: TCAGTAGA
Second: AAGTACAT
The “PBM E-score” value of the first is lower: 0.0364 for the first, 0.162 for the second.

Compared with GGAATGAA, ACTGCCCC is lower in “PBM E-score” value: 0.243 for the first, -0.151 for the second.

First: AAGTTCGC
Second: GTCTATTA
The “PBM E-score” value of the first is higher: 0.131 for the first, -0.0262 for the second.

Going from CTTTAGAC to AATTCCCC, the “PBM E-score” value rises from 5e-05 to 0.0602.

Going from CGTGGTTC to CACCCGTG, the “PBM E-score” value falls from -0.0435 to -0.263.

First: CAATCTAC
Second: GGTGCGAC
The “PBM E-score” value of the first is higher: -0.134 for the first, -0.156 for the second.

First: CCGGCATA
Second: CGTCTAAA
The “PBM E-score” value of the first is higher: 0.0113 for the first, -0.0058 for the second.

First: GCTCGGCA
Second: CTGAGTAC
The “PBM E-score” value of the first is higher: 0.00254 for the first, -0.175 for the second.

Compared with GCATTATA, CTGCAGAC is lower in “PBM E-score” value: 0.109 for the first, -0.0265 for the second.

Going from ATAAATAG to CAGAATAA, the “PBM E-score” value rises from 0.195 to 0.196.

First: AGTTCAAA
Second: AACCCTAT
The “PBM E-score” value of the first is higher: 0.0949 for the first, 0.081 for the second.

First: AGGCCTAG
Second: CCAGATAC
The “PBM E-score” value of the first is lower: -0.105 for the first, -0.0923 for the second.

Going from GCTCAATA to GGATATCA, the “PBM E-score” value falls from 0.0876 to 0.0118.

Compared with GCGCACGA, GTATGGAC is lower in “PBM E-score” value: 0.084 for the first, -0.11 for the second.

Compared with GAAAATCC, ACGAGATA is higher in “PBM E-score” value: 0.0305 for the first, 0.0592 for the second.

Compared with AAGACCCT, AAGGACCC is lower in “PBM E-score” value: -0.114 for the first, -0.2 for the second.

Going from AACAATGC to CACTGCGG, the “PBM E-score” value falls from 0.136 to 0.0671.

Going from CAGAGGCC to TCTCCACA, the “PBM E-score” value rises from -0.278 to 0.00014.

Compared with CCTCAGCA, GAGAGGAC is higher in “PBM E-score” value: -0.186 for the first, -0.0706 for the second.

First: AGGCGATG
Second: CGAACTCG
The “PBM E-score” value of the first is lower: -0.104 for the first, 0.0851 for the second.

Compared with TTATAAAA, GAACTGTC is lower in “PBM E-score” value: 0.256 for the first, -0.049 for the second.

Compared with ACTCGCAG, CCGTAATC is higher in “PBM E-score” value: 0.0964 for the first, 0.157 for the second.

Compared with CACTTGGC, CCTATTCA is lower in “PBM E-score” value: -0.136 for the first, -0.139 for the second.

Compared with TCTACTCA, AACTCCCC is lower in “PBM E-score” value: 0.137 for the first, -0.228 for the second.

Going from CCTTAGAG to CCGTCGTA, the “PBM E-score” value rises from -0.268 to 0.0109.

First: AGCCTCGG
Second: AAAGGGCT
The “PBM E-score” value of the first is higher: -0.244 for the first, -0.254 for the second.

Going from ACGCGCGT to TATTATAA, the “PBM E-score” value rises from 0.178 to 0.281.

Compared with ACGTACAC, AGATGTCA is lower in “PBM E-score” value: 0.138 for the first, 0.063 for the second.

First: GGTGATCA
Second: CAGGCTCA
The “PBM E-score” value of the first is higher: -0.0356 for the first, -0.0744 for the second.

Compared with GGTTATGA, AAGCTCCC is lower in “PBM E-score” value: 0.0918 for the first, -0.231 for the second.

Going from CGTACACC to GCCCCGAC, the “PBM E-score” value falls from -0.0419 to -0.176.

First: TACTGAAA
Second: ACGGAGTA
The “PBM E-score” value of the first is higher: 0.273 for the first, -0.0807 for the second.

Compared with AGACATTG, AGCGCCGG is lower in “PBM E-score” value: 0.0192 for the first, -0.181 for the second.

First: AACCAGTT
Second: GGCTAAGA
The “PBM E-score” value of the first is higher: 0.2 for the first, -0.109 for the second.

Compared with ATTCCCTA, CCTTTTCA is lower in “PBM E-score” value: 0.0936 for the first, 0.0263 for the second.

Going from AAGCGCCA to CTGGCGTC, the “PBM E-score” value rises from -0.253 to -0.103.

Going from CACCCGAC to ACTTCAAT, the “PBM E-score” value rises from -0.14 to 0.18.
